Data on 62 compounds can be found in PMC12431657, “Discovery and mechanistic insights of dibenzoylmethane as a broad spectrum inhibitor of coronavirus” (PLOS Pathogens, 2025).

The structures appear in SMILES notation. Structures can show the parent of a compound that is named as a salt. Where two headings read alike, the source gives them in different places. Hit rate of the full screen: of about 3,300 compounds, about 60 (2%) showed an effect of 50% or more. The list shows a part of the results.

This experiment concerns HCoV-OC43. More on the design: species or system RD; HTS, protection from HCoV-OC43 induced cell death, luminescent cell viability (CellCounting-Lite 2.0), inhibition rate. As to conditions: 24 h post infection, 1 h compound pre-incubation, 10 µM, inhibitor.

`O=C(O[C@@H]1Cc2c(O)cc(O)cc2O[C@@H]1c1cc(O)c(O)c(O)c1)c1cc(O)c(O)c(O)c1` [(-)-Epigallocatechin Gallate]: the “OC43 Inhibition rate” value was -0.4%.

Regarding `CC[C@@]1(O)C(=O)OCc2c1cc1n(c2=O)Cc2cc3cc(OC)ccc3nc2-1` [10-Methoxycamptothecin], the “OC43 Inhibition rate” value is on record as -2.1%.

As for `C/C1=C\C[C@]2(C(C)C)CC[C@@](C)(O2)[C@@H](O)CC/C(C)=C/CC1` [Incensole], the “OC43 Inhibition rate” value is 1.2%.

Regarding `N[C@@H](CCS)C(=O)O` [L-Homocysteine], the “OC43 Inhibition rate” value is reported as 2.1%.

Take `C=CCc1ccc(O)c(-c2ccc(O)c(CC=C)c2)c1` [Honokiol]: the “OC43 Inhibition rate” value amounted to 32.2%.

For the compound `COc1cc([C@@H]2c3cc4c(cc3[C@H](O)[C@H]3COC(=O)[C@H]23)OCO4)cc(OC)c1OC` [Podofilox], the “OC43 Inhibition rate” value is recorded as -3.9%.

As for `COc1cc(OC)c(C(=O)O)cc1OC` [2,4,5-Trimethoxybenzoic acid], the “OC43 Inhibition rate” value is -0.1%.

For `CCOC(=O)/C=C/c1ccc(O)c(OC)c1` [Ethyl ferulate], the “OC43 Inhibition rate” value is listed as 1.1%.

Take `O=c1c(-c2ccc(O)cc2)coc2cc(O)cc(O)c12` [Genistein]: the “OC43 Inhibition rate” value came out at 6.8%.

As for `N[C@H](Cc1ccccc1)C(=O)O` [D-Phenylalanine], the “OC43 Inhibition rate” value was -0.2%.

`CO[C@H]1[C@H](O)[C@H](O[C@H]2CC[C@@]3(C)[C@H](CC[C@@H]4[C@@H]3CC[C@]3(C)[C@@H](C5=CC(=O)OC5)CC[C@]43O)C2)O[C@@H](C)[C@@H]1O` [Neriifolin]: the “OC43 Inhibition rate” value is reported as -1.8%.

For the compound `CO[C@@H]1[C@H](O)[C@@H](CO)O[C@H]1n1cnc2c(N)ncnc21` [2'-O-Methyladenosine], the “OC43 Inhibition rate” value stood at 11.9%.

Turning to `CC(=O)OC[C@H](Cc1ccccc1)NC(=O)[C@H](Cc1ccccc1)NC(=O)c1ccccc1` [Aurantiamide acetate], the “OC43 Inhibition rate” value is 0.3%.

Take `Nc1nc2c([nH]c(=O)n2[C@H]2C[C@H](O)[C@@H](CO)O2)c(=O)[nH]1` [8-Hydroxy-2'-deoxyguanosine]: the “OC43 Inhibition rate” value was -0.5%.

Turning to `COc1cc(C=O)ccc1O` [Vanillin], the “OC43 Inhibition rate” value amounted to 0.9%.

For the compound `COc1cc(COC(=O)CCCC/C=C/C(C)C)ccc1O` [Capsiate], the “OC43 Inhibition rate” value was -0.6%.

For `CNc1nc2c(ncn2[C@@H]2O[C@H](CO)[C@@H](O)[C@H]2O)c(=O)[nH]1` [N2-Methylguanosine], the “OC43 Inhibition rate” value is recorded as -0.3%.

Regarding `O=C1C=C2C=C[C@@H](O)[C@H](O)[C@H]2O1` [Griffonilide], the “OC43 Inhibition rate” value was -0.1%.

Consider `COc1cc2c(=O)c(-c3ccc(O)cc3)coc2cc1O[C@@H]1O[C@H](CO)[C@@H](O)[C@H](O)[C@H]1O` [Glycitin], for which the “OC43 Inhibition rate” value turned out to be 1.5%.

Take `COc1cc(/C=C/C(=O)OC[C@H]2O[C@@H](O[C@@H]3[C@@H](O)[C@H](O)[C@@H](CO)O[C@H]3c3c(OC)cc4oc(-c5ccc(O)cc5)cc(=O)c4c3O)[C@H](O)[C@@H](O)[C@@H]2O)ccc1O` [6‴-Feruloylspinosin]: the “OC43 Inhibition rate” value is 0.6%.

With `C=C1CC[C@@H]2[C@](C)(CO)[C@H](O)CC[C@@]2(C)[C@@H]1/C=C/C1=CCOC1=O` [14-Deoxy-11,12-didehydroandrographolide], the “OC43 Inhibition rate” value was -1.3%.

For `COc1ccc(/C=C/c2cc(OC)cc(=O)o2)cc1` [Yangonin], the “OC43 Inhibition rate” value came out at 0.5%.

Take `COc1ccc(/C=C/C(=O)O)cc1OC` [3,4-Dimethoxycinnamic acid]: where the note is “OC43 Inhibition rate, 24 h”, the “OC43 Inhibition rate” value was found to be 1.2%.

As to `c1cncnc1` [Pyrimidine], the “OC43 Inhibition rate” value is -0.5%.

On to `CC(=O)c1cc(O)ccc1O` [2,5-Dihydroxyacetophenone], for which the “OC43 Inhibition rate” value is on record as 0%.

As for `COc1ccc2cc3[n+](cc2c1OC)CCc1cc(O)c(O)cc1-3` [Demethyleneberberine], the “OC43 Inhibition rate” value is -1%.

Take `O=C1C[C@@H](c2cc(O)c(O)c(O[C@@H]3O[C@H](CO)[C@@H](O)[C@H](O)[C@H]3O)c2)Oc2cc(O)cc(O)c21` [Plantagoside]: the “OC43 Inhibition rate” value was determined as 0.6%.

Turning to `C[C@@H]1CC[C@H]2[C@@H](C)C(=O)O[C@@H]3O[C@@]4(C)CC[C@@H]1[C@]32OO4` [Artemisinin], the “OC43 Inhibition rate” value worked out at 0.2%.

With `O=C1O[C@H]2[C@@H]3OC(=O)c4cc(O)c(O)c(O)c4-c4c(cc(O)c(O)c4O)C(=O)OC[C@H]2O[C@@H](OC(=O)c2cc(O)c(O)c(O)c2)[C@@H]3OC(=O)c2cc(O)c(O)c3c2[C@@H]2C1=CC(=O)[C@](O)(O3)C2(O)O` [Geraniin], the “OC43 Inhibition rate” value was 1.3%.

For the compound `COc1cccc(OC)c1C(=O)O` [2,6-Dimethoxybenzoic acid], the “OC43 Inhibition rate” value is on record as 0.1%.

For `COc1cc(-c2[o+]c3cc(O)cc(O)c3cc2O)cc(O)c1O` [Petunidin (chloride)], the “OC43 Inhibition rate” value was found to be 1.2%.

As to `COc1cc(CCC(=O)CC(O)CCc2ccc(O)c(OC)c2)ccc1O` (centres unmarked) [Hexahydrocurcumin], the “OC43 Inhibition rate” value is 6.3%.

As to `CO[C@H]1/C=C/O[C@@]2(C)Oc3c(C)c(O)c4c(c3C2=O)C(=O)C=C(NC(=O)/C(C)=C\C=C\[C@H](C)[C@H](O)[C@@H](C)[C@@H](O)[C@@H](C)[C@H](OC(C)=O)[C@@H]1C)C4=O` [Rifamycin S], the “OC43 Inhibition rate” value amounted to 3.2%.

Consider `O=C(O)[C@H](O)[C@@H](O)CO` [Calcium L-Threonate], for which the “OC43 Inhibition rate” value was determined as 1.3%.

`CO[C@H]1C[C@@H]2CC[C@@H](C)[C@@](O)(O2)C(=O)C(=O)N2CCCC[C@H]2C(=O)O[C@H]([C@H](C)C[C@@H]2CC[C@@H](O)[C@H](OC)C2)CC(=O)[C@H](C)/C=C(\C)[C@@H](O)[C@@H](OC)C(=O)[C@H](C)C[C@H](C)/C=C/C=C/C=C/1C` [Rapamycin]: the “OC43 Inhibition rate” value is -0.1%.

On to `COc1ccc(-c2oc3c(CC=C(C)C)c(O[C@@H]4O[C@H](CO)[C@@H](O)[C@H](O)[C@H]4O)cc(O)c3c(=O)c2O[C@@H]2O[C@@H](C)[C@H](O)[C@@H](O[C@@H]3O[C@H](CO)[C@@H](O)[C@H](O)[C@H]3O)[C@H]2O)cc1` [Epimedin A1], for which the “OC43 Inhibition rate” value amounted to 3.6%.

Take `CC(C)C[C@H](NC(=O)[C@@H](O)[C@H](N)Cc1ccccc1)C(=O)O` [Bestatin (hydrochloride)]: the “OC43 Inhibition rate” value (OC43 Inhibition rate, 24 h) is reported as 0.4%.

Take `COc1cc(OC)c2c(=O)cc(-c3ccccc3)oc2c1` [5,7-Dimethoxyflavone]: the “OC43 Inhibition rate” value was 1%.

For `C=C(C)[C@H](CC=C(C)C)Cc1c(O)cc(O)c2c1O[C@H](c1ccccc1O)CC2=O` [Kushenol A], the “OC43 Inhibition rate” value is given as 7.8%.

For `CC(=O)N[C@@H](Cc1c[nH]c2ccccc12)C(=O)O` [N-Acetyl-L-tryptophan], the “OC43 Inhibition rate” value is 6.6%.

For `COc1ccc(-c2cc(=O)c3c(O)cc(O[C@@H]4O[C@H](CO)[C@@H](O)[C@H](O)[C@H]4O[C@@H]4O[C@@H](C)[C@H](O)[C@@H](O)[C@H]4O)cc3o2)cc1O` [Neodiosmin], the “OC43 Inhibition rate” value is -0.3%.

For the compound `CC(C)=CC(=O)O` [3-Methylbut-2-enoic acid], the “OC43 Inhibition rate” value was 0.5%.

`CC(C)=CCc1c(O)cc2oc3cc(O)c(O)c(CCC(C)(C)O)c3c(=O)c2c1O` [Garcinone C]: the “OC43 Inhibition rate” value is reported as -1.1%.

As for `C/C=C(\CC[C@@H](C)[C@H]1CC[C@H]2[C@@H]3CC=C4C[C@@H](O)CC[C@]4(C)[C@H]3CC[C@]12C)C(C)C` [Fucosterol], the “OC43 Inhibition rate” value was -0.6%.

`N[C@@H](CCO)C(=O)O` [L-Homoserine]: the “OC43 Inhibition rate” value is listed as -0.7%.

Regarding `C=CC(C)(O)CCC=C(C)CCC=C(C)C` (mixture of isomers) [Nerolidol], the “OC43 Inhibition rate” value is recorded as 3%.

As for `O=C(O)[C@H]1CCCN1` [(R)-pyrrolidine-2-carboxylic acid], the “OC43 Inhibition rate” value is on record as -5%.

Turning to `C=C(C)[C@@H]1CC[C@]2(COC(C)=O)CC[C@]3(C)[C@H](CC[C@@H]4[C@@]5(C)CC[C@H](OC(C)=O)C(C)(C)[C@@H]5CC[C@]43C)[C@@H]12` [Betulin diacetate], the “OC43 Inhibition rate” value is reported as -0.4%.

Consider `O=c1c(O)c(-c2ccccc2)oc2ccc(O)cc12` [3,6-Dihydroxyflavone], for which the “OC43 Inhibition rate” value turned out to be 0.4%.

For the compound `COc1cc(-c2oc3cc(OC)c(OC)c(O)c3c(=O)c2OC)ccc1O` [Chrysosplenetin], the “OC43 Inhibition rate” value turned out to be 47.1%.

On to `C[C@@H]1O[C@@H](OC[C@H]2O[C@@H](Oc3c(-c4ccc(O)cc4)oc4cc(O)cc(O)c4c3=O)[C@H](O[C@@H]3O[C@@H](C)[C@H](O)[C@@H](O)[C@H]3O)[C@@H](O)[C@H]2O)[C@H](O)[C@H](O)[C@H]1O` [Mauritianin], for which the “OC43 Inhibition rate” value is on record as -0.4%.

For `CC(C)C1=Cc2ccc3c(c2C(=O)C1=O)CCCC3(C)C` [Miltirone], the “OC43 Inhibition rate” value is reported as 1.1%.

As to `COc1cc(OC)c2c(=O)cc(-c3cc(OC)c(OC)c(OC)c3)oc2c1` [3',4',5',5,7-Pentamethoxyflavone], the “OC43 Inhibition rate” value is 32%.

As for `CCC(=O)CO` [1-Hydroxy-2-butanone], the “OC43 Inhibition rate” value is -0.4%.

In the case of `CC(C)=CC(=O)NCC(=O)O` [3-Methylcrotonylglycine], the “OC43 Inhibition rate” value is recorded as -1%.

On to `Nc1ccn([C@@H]2O[C@H](COP(=O)(O)OP(=O)(O)O)[C@@H](O)[C@H]2O)c(=O)n1` [Cytidine 5'-diphosphate (trisodium salt)], for which the “OC43 Inhibition rate” value is listed as 3.6%.

For `O=C(OCC1=C[C@@H](O)[C@@H]2C=CO[C@@H](O[C@@H]3O[C@H](CO)[C@@H](O)[C@H](O)[C@H]3O)[C@H]12)c1ccc(O)cc1` [Agnuside], the “OC43 Inhibition rate” value is -0.1%.

Regarding `CC1=COC(=O)[C@H]2[C@@H]1CC[C@@H]2C` [4aα,7α,7aα-Nepetalactone], the “OC43 Inhibition rate” value is recorded as 0.2%.

`CC(=O)N[C@@H](Cc1ccc(O)cc1)C(=O)O` [N-Acetyl-L-tyrosine]: the “OC43 Inhibition rate” value was 1%.

`OC[C@@H](O)[C@@H](O)[C@H](O)[C@H](O)CO` [D-Mannitol]: the “OC43 Inhibition rate” value is reported as -8.1%.

On to `C=CCc1ccc(O)c(OC)c1` [Eugenol], for which the “OC43 Inhibition rate” value is 0%.

In the case of `CO[C@@H]1[C@H](O)[C@@H](CO)O[C@H]1n1ccc(=O)[nH]c1=O` [2′-O-Methyluridine], the “OC43 Inhibition rate” value is recorded as -1.2%.
